Experimental findings from article doi:10.1101/2024.07.05.602170 are described below.

The chains behind the UniProt entries cited, without tags or fusion partners. Where a name states a change or a piece, a line headed by the entry shows the natural chain unless it says otherwise. A line that says so, or that is headed by a name, gives the form on record, which may keep a tag or linker.
0N4R wild-type human tau (P10636, form named): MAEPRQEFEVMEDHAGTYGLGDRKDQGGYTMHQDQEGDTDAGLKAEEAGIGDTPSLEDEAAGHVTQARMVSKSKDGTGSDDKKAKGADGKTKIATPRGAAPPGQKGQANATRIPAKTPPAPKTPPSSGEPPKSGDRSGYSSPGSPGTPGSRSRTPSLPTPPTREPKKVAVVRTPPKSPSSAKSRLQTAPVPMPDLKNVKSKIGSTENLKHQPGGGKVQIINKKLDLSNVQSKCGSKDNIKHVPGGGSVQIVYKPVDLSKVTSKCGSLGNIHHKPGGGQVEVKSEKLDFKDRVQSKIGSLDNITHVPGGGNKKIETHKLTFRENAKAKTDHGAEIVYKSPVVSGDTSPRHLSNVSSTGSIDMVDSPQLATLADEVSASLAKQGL
UniProt O35465: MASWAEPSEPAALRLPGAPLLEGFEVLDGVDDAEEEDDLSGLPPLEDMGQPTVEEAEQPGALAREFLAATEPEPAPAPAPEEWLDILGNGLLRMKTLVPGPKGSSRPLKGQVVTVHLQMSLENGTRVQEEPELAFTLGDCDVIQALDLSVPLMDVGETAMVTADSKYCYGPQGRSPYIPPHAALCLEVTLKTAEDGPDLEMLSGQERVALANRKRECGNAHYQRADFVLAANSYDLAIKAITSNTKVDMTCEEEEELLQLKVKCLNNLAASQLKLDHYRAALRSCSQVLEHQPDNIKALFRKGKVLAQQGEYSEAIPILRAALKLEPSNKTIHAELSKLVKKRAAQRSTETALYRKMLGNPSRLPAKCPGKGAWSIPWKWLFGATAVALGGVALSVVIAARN

This test concerns the target 0N4R wild-type human tau (human) (UniProt P10636). Put plainly: co-IP; 500 ug lysate of stable HT22 cells (150 mM NaCl, 50 mM Tris-HCl, 1 mM EDTA, 1 mM EGTA, 0.5% NP-40, pH 7.4) incubated with rabbit anti-tau (DAKO) or rabbit IgG control overnight at 4°C, protein A/G magnetic agarose beads; blot with mouse anti-FKBP8.

These are yes or no findings as the source states them, for the method shown. In cells and extracts the contact can be indirect. Some results given as binding are weak or reduced against the parent protein; the word gives no strength.

As to “FK506-binding protein prolyl isomerase 8 (FKBP8/FKBP38) (from UniProt O35465 1-402)”, the binding result was “binds”.
